Values quoted from earlier work, collected in patent publication US20060216820A1, “Use of retinoic esters of hyaluronic acid for the differentiation of totipotent stem cells” (SINTOFARM S.P.A., priority 2003, published 2006).
Read-outs that look alike come from different tables or passages of the source. At least one structure is not confirmed: it was looked up by name or label, or the drawing left a doubt.

What was measured:
[1] = test system: human totipotent stem cells; settings: human totipotent stem cells (Xu et al. 2002), cited from earlier work
[2] = test system: P19 cells; settings: pluripotent P19 cells; cited from earlier work
[3] = test system: some stem cells lines; settings: some stem cells lines (Wobus et al. 1997); cited from earlier work

In the case of `CC1=C(/C=C/C(C)=C/C=C/C(C)=C/C(=O)O)C(C)(C)CCC1` [Retinoic acid, retinoic acid], the “cardiomyocyte differentiation activity / effect on human stem cells” value [1] is given as “lacking cardiomyocyte differentiation activity”, the “cardiomyocyte differentiation activity / effect on human stem cells” value ([1]; listed as retinoic acid) is given as “does not show any effect” and the “type of differentiation induced” value [2] is given as “neuronal differentiation”. For the same molecule, the “type of differentiation induced” value [3] was “cardiac differentiation”.
